We go through 1 substance from publication PMC4605480.

The chains behind the UniProt entries cited, without tags or fusion partners.
UniProt P60903: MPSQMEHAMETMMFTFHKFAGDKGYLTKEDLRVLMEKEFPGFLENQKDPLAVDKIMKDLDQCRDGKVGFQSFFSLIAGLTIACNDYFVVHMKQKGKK
UniProt P07355: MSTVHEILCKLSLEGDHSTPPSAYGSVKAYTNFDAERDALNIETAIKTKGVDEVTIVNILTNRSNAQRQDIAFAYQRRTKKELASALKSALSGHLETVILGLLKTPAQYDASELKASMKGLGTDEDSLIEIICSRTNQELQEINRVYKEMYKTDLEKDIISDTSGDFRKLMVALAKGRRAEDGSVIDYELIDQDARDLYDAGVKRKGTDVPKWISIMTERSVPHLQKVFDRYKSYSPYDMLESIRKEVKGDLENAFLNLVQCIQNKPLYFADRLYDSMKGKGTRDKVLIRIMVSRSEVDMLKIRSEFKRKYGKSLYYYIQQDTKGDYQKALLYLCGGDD

This assay deals with p11 protein (also called S100A10) (human (endogenous in Nalm6)) (UniProt P60903). In words: co-IP; Nalm6 cells treated with DMSO for 6 h, lysed in 1% Triton X-100 buffer; 1 mg lysate protein incubated overnight with anti-p11 antibody on Protein A Mag Agarose beads via rabbit anti-mouse antibody; blot for ANX2 and p11.

Results are given in words; binding and its absence hold for the method and conditions named. Binding seen in cells or lysates may run through a third protein. Some results given as binding are weak or reduced against the parent protein; the word gives no strength.

In the case of Annexin II (from UniProt P07355 1-339), the binding result was “binds”.
